The values below come from PubChem BioAssay AID1671190 (National Center for Advancing Translational Sciences (NCATS), 2021).

Sequences of proteins named here, by UniProt entry; tags and fusion partners are left off.
UniProt P18054, whole entry, looked up: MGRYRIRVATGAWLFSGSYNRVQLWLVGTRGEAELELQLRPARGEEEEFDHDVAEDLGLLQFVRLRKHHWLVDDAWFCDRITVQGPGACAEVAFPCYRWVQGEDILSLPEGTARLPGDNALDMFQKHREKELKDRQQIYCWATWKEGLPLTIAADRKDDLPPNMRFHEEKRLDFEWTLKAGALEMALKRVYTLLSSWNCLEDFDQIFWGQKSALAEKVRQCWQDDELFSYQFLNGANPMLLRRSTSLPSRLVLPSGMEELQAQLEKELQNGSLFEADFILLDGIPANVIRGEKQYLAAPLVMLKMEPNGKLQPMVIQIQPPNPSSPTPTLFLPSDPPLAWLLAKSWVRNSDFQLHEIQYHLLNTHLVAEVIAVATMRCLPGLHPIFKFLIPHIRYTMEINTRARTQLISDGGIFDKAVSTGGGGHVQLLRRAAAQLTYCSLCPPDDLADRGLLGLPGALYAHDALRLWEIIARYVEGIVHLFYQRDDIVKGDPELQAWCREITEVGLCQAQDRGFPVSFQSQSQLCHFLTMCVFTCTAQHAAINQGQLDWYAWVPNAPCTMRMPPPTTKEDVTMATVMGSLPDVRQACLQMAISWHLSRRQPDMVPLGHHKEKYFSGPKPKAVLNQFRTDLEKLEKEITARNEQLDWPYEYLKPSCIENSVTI

In all, about 580,000 compounds went through this assay and about 6,100 (1.1%) were called active. Roughly 15% stayed inconclusive and do not appear here. Calls follow the shape of the dose curve; as a rule, active = well fitted inhibition curve with a large enough effect; inconclusive = small, poorly fitted or top-dose-only effect, or another doubt; inactive = no such curve, though single readings can be large or run the other way. The list shows a part of the results, in another mix than the full data. The source gives no active or inactive call for entries shown without one. Bridge positions count the residues as written; N and C are the ends. Square brackets hold non-standard residues; d marks the D form. Peptide text beside a SMILES is read from it. hArg = N=C(N)NCCCC[C@H](N)C(=O)O; Mpa = O=C(O)CCS
% is scaled to controls: 0 for no effect and ±100 for the full control effect; potency is read from the fitted curve at half-maximal effect.

This experiment concerns the target Polyunsaturated fatty acid lipoxygenase ALOX12 (Homo sapiens) (UniProt P18054). Nature of the experiment: Primary qHTS assay for inhibitors of human arachidonate 12S-lipoxygenase (ALOX12): Round 2. Particulars: purified 12hLO, xylenol orange hydroperoxide absorbance; activity change, negative = inhibition: at 0.00344 µM (top of the series). The source says: Assay Provider: Theodore R. Holman Ph.D. University of California, Santa Cruz, California Human lipoxygenase 12hLO is a member of the closely related lipoxygenase family of enzymes which catalyze the site-specific oxidation of arachidonic acid to various hormone precursor molecules and as such is a candidate for drug development in a variety of disease areas, such as cancer and inflammation. Inhibition of 12hLO activity was screened by utilizing arachidonic acid as a substrate. The extent of hydroperoxide product formation was measured by a secondary chromogenic reaction in which xylenol orange (XO, Sigma-Aldrich, cat. number 39,818-7) reacts with the ferric ions produced from the reaction between the hydroperoxide and ferrous ions. The Fe (III)-XO complex is characterized with red-shifted absorbance at 560 nm. A purified preparation of human 12hLO was supplied by Dr. Holman laboratory, University of California, Santa Cruz.
PROTOCOL TABLE SEQUENCE No. (e.g., 1, 2, 3, etc.); […] (e.g., Cells, Incubation, Reagent, etc.); VALUE; DESCRIPTION 1; Enzyme; 3 uL; 150 nM 12hLO enzyme solution dispensed in 1536-well Greiner black, clear bottom plates. 2; Compound; 23 nL; compounds and controls were added. 3; Incubate; 15 min; room temperature. 4; Substrate; 1 uL; 40 uM arachidonic acid (final concentration). 5; Incubate; 30 min; room temperature. 6; Reagent; 4 uL; Fe-XO solution was added to each well. 7; Incubation; 30 min; room temperature 8; Detector; absorbance; Read 1 at 405 nm absorbance using ViewLux (Perkin-Elmer) CCD imager. 9; Detector; absorbance; Read 2 at 573 nm absorbance using ViewLux (Perkin-Elmer) CCD imager. NOTES (numbers refer to sequence above) 1; 150 nM 12hLO (final concentration) in buffer solution (25 mM Hepes, 0.01% Triton X-100, pH 7.0) was dispensed in columns 1, 2, 5-48. Column 1 is neutral (100% activity). Buffer only was dispensed in columns 3 and 4 as no enzyme negative controls. The plates were covered with metal lids with gas-exchange holes. 2; Compounds were pin transferred via a Kalypsys Pin Tool (Wako USA) in column 5-48. Control compound was transferred in column 2, titration of nordihydroguaiaretic acid (NDGA, Sigma-Aldrich, N5023) with top concentration of 20 mM in DMSO then 1:3 dilution in duplicate. Dilution factor of 23 nL into 4 uL final assay volume. 3; Covered assay plates were incubated for 15 min at room temperature. 4; Substrate was added to start the reaction; 40 uM arachidonic acid (Sigma-Aldrich, St. Louis, MO) was dispensed throughout the plate. 6; Chromogenic detection reagent solution (divalent iron/xylenol orange, Fe-XO) was added to each well: 200 uM xylenol orange, 300 uM ferrous ammonium sulfate prepared freshly in 50 mM sulfuric acid. 8, 9; Two absorbance readouts were obtained at 405 nm and at 573 nm using a ViewLux high-throughput CCD plate imager (Perkin-Elmer). The 573 to 405 (Read 2 / Read 1) absorbance ratio was used to compute reaction progress.
As for `CCCCCCNC(=O)n1cc(F)c(=O)[nH]c1=O`, the activity change, negative = inhibition is -13%.

In the case of `CC(=O)Nc1ccn(C2COC(COC(=O)c3ccccc3)O2)c(=O)n1` (stereo not given), the activity change, negative = inhibition worked out at 12.1%.

As for `CN(C)CCCNS(=O)(=O)c1ccc(N2CCN(Cc3ccc4c(c3)OCO4)CC2)c([N+](=O)[O-])c1`, the Potency was active: 2.82 µM.

For `COc1ccc(Cl)cc1C(=O)NCCc1ccc(S(=O)(=O)NC(=O)NC2CCCCC2)cc1`, the activity change, negative = inhibition was -11.3%.

For `COC(=O)C1=C(C)N(Cc2ccc(Br)cc2)C(=S)NC1c1cccc(Br)c1` (stereo not given), the Potency is active: 39.8 µM.

Take `C/C(=N\NC(=S)Nc1ccccc1C)c1cc2ccccc2o1`: the Potency was active: 20 µM.

For `Cc1cc(C)nc(NS(=O)(=O)c2ccc(N)cc2)n1`, the activity change, negative = inhibition is -9.89%.

As for `CCOC(=O)/C=C(C)/C=C/C=C(C)/C=C/c1c(C)cc(OC)c(C)c1C`, the activity change, negative = inhibition stood at 11.6%.

Regarding `CCCOC(=O)c1cc(NC(=O)c2cc(Cl)c(OC)c(Cl)c2)ccc1N1CCOCC1`, the Potency was active: 5.62 µM.

For the compound `Cc1c(N)c(=O)n(-c2ccccc2)n1C`, the activity change, negative = inhibition was -5.72%.

On to `COc1ccc(N2CCN(C(c3cc(OC)ccc3OC)c3nnnn3Cc3ccco3)CC2)cc1` (stereo not given), for which the Potency is active: 22.4 µM.

On to `CCN(CC)CCOCCOC(=O)C1(c2ccccc2)CCCC1`, for which the activity change, negative = inhibition is -28.5%.

As for `COc1ccccc1NC(=O)c1c(C)nc2ccccc2c1C(=O)O`, the Potency is active: 14.1 µM.

As to `C#CC(C)(CC)OC(=O)c1ccccc1C(=O)O` (stereo not given), the activity change, negative = inhibition is -30.5%.

Regarding `COc1ccccc1C1CC(=O)Oc2cc(C)c(Cl)cc21` (stereo not given), the Potency was active: 39.8 µM.

As for `COc1cc2c(cc1OC)C(C(C(=O)N(CCc1ccc(OC)c(OC)c1OC)CCc1ccc(OC)c(OC)c1OC)c1ccccc1)=NCC2` (stereo not given), the activity change, negative = inhibition is -20.2%.

As for `O=C(CCBr)N1CCN(C(=O)CCBr)CC1`, the activity change, negative = inhibition is -23.3%.

For the compound `CNCC(O)c1ccc(O)c(O)c1` (stereo not given), the activity change, negative = inhibition amounted to 10.1%.

In the case of `C/C(=N\NC(=O)c1cc2c(s1)CCC(C)C2)c1ccncc1` (stereo not given), the Potency is active: 1.78 µM.

With `CC(C)(C)C(=O)OCOC(=O)C1N2C(=O)CC2S(=O)(=O)C1(C)C` (stereo not given), the activity change, negative = inhibition was 40.7%.

On to `CCCCCCOc1ccccc1C(N)=O`, for which the activity change, negative = inhibition amounted to 30%.

Take `CCN(CC)CCNC(=O)c1ccc(N)cc1`: the activity change, negative = inhibition amounted to 26%.

In the case of `OC1(c2ccccc2)CCNCC1`, the activity change, negative = inhibition is -16%.

Turning to `CN[C@H]1CC[C@@H](c2ccc(Cl)c(Cl)c2)c2ccccc21`, the activity change, negative = inhibition was -6.23%.

With `O=C(CSc1ccc(Cl)cc1)N/N=C/c1ccc([N+](=O)[O-])o1`, the Potency is active: 39.8 µM.

In the case of `OC(C#CCN1CCCC1)(c1ccccc1)c1ccccc1`, the activity change, negative = inhibition was found to be 23.5%.

As for `Oc1ccccc1-c1nnco1`, the activity change, negative = inhibition was found to be 20.2%.

For the compound `Cc1ccccc1N=Nc1ccc(N=Nc2c(O)ccc3ccccc23)c(C)c1`, the activity change, negative = inhibition is 47.5%.

Consider `CC1(C)CC(=O)C2=C(C1)Nc1ccccc1S2`, for which the Potency was active: 25.1 µM.

For `Cc1ccc(C(=O)/C=C/c2ccc(-c3ccccc3Br)o2)cc1`, the Potency is active: 1.12 µM.

For the compound `Cc1sc(NC(=O)/C=C/c2cccs2)c(C#N)c1C`, the Potency is active: 7.94 µM.

`O=C(NCCCN1CCOCC1)c1ccc(Cl)cc1`: the activity change, negative = inhibition is -8.03%.

As to `CC(=O)N1CCN(c2ccc(O)cc2)CC1`, the activity change, negative = inhibition was -11.6%.

As to `CCSc1oc(-c2ccco2)nc1S(=O)(=O)c1ccc(F)cc1`, the Potency is active: 28.2 µM.

Regarding `COC(=O)[C@H](Cc1ccccc1)NC(=O)[C@@H](N)CC(=O)O` (H-Asp-Phe-OMe), the activity change, negative = inhibition is 31.2%.

On to `CCCCOc1cc(C(=O)OCCN(CC)CC)ccc1N`, for which the activity change, negative = inhibition turned out to be 5.33%.

As to `CCNC(=O)NC(=O)COC(=O)c1cc(-c2ccco2)nc2ccccc12`, the Potency was active: 6.31 µM.

Consider `N#CSCC(=O)O`, for which the activity change, negative = inhibition stood at 26.7%.

Regarding `C=CCc1cccc(C=Nc2cc(Br)ccc2O)c1O`, the Potency was active: 35.5 µM.

`COc1ccc(/C=N/n2c(-c3ccc(C)cc3)n[nH]c2=S)cc1OC`: the Potency was active: 10 µM.

Consider `Clc1ccc2nsnc2c1NC1=NCCN1`, for which the activity change, negative = inhibition is -7.97%.

Turning to `CC(=O)Nc1c(I)cc(I)c(C(=O)O)c1I`, the activity change, negative = inhibition turned out to be 14.4%.

For the compound `CC(C)Oc1ccc2c(=O)c(-c3ccccc3)coc2c1`, the activity change, negative = inhibition amounted to 1.32%.

Consider `O=c1[nH]cnc2nc[nH]c12`, for which the activity change, negative = inhibition turned out to be 6.64%.

In the case of `Brc1ccc(-c2ccc(-c3nnc(-c4ccco4)o3)o2)cc1`, the Potency is active: 14.1 µM.

For `S=c1nc(-c2ccco2)[nH][nH]1`, the Potency is active: 6.31 µM.

Consider `NC(=O)[C@@H]1CSSCCC(=O)N[C@@H](CCCCN=C(N)N)C(=O)NCC(=O)N[C@@H](CC(=O)O)C(=O)N[C@@H](Cc2c[nH]c3ccccc23)C(=O)N2CCC[C@H]2C(=O)N1` ([Mpa][hArg]GDWPC-NH2; disulfide 1-7), for which the activity change, negative = inhibition was -22.3%.

For `COc1ccc(-c2cc(-c3ccco3)[nH]c(=O)c2C#N)cc1`, the Potency was active: 39.8 µM.

For the compound `CN1CCN(C(c2ccc(Br)cc2)c2cc(Cl)c3cccnc3c2O)CC1` (stereo not given), the Potency is active: 10 µM.

In the case of `Oc1c(Cl)cc(Cl)c2cccnc12`, the activity change, negative = inhibition is 25.6%.

For the compound `c1ccc(-c2ccc(C(c3ccccc3)n3ccnc3)cc2)cc1` (stereo not given), the activity change, negative = inhibition was -21%.

Turning to `COC(=O)C1=C(C)NC(C)=C(C(=O)OC(C)(C)CN(C)CCC(c2ccccc2)c2ccccc2)C1c1cccc([N+](=O)[O-])c1` (stereo not given), the activity change, negative = inhibition was -13.6%.

With `c1ccc2c(c1)CCc1ccccc1N2`, the activity change, negative = inhibition was -20.2%.

`CC1=NS(=O)(=O)c2cc(Cl)ccc2N1`: the activity change, negative = inhibition turned out to be 20.5%.

In the case of `CN(c1ccc(-c2csc(NC3CCCC3)n2)cc1)S(C)(=O)=O`, the Potency is active: 15.8 µM.

On to `Cn1cc[nH]c1=S`, for which the activity change, negative = inhibition was -19.6%.

For `Cc1ccc(-c2cc(C(=O)O)c3ccccc3n2)o1`, the Potency is active: 11.2 µM.

Regarding `Cc1ccc(NC(=O)CSc2ccccc2C(=O)Nc2ccc3c(c2)OCCCO3)cc1`, the Potency was active: 10 µM.

As to `CCN(CC)C(C)CN1c2ccccc2Sc2ccccc21` (stereo not given), the activity change, negative = inhibition was -15.7%.

Regarding `CCCNC(=O)NS(=O)(=O)c1ccc(Cl)cc1`, the activity change, negative = inhibition is -16.3%.

For the compound `Clc1cccc(Cl)c1NC1=NCCN1`, the activity change, negative = inhibition was -52.6%.

Consider `NC(N)=NCc1ccc(CN2CCCC2)cc1`, for which the Potency was active: 44.7 µM.

With `CN1N=C(C(N)=O)CCC1=O`, the activity change, negative = inhibition is -18.5%.

Consider `O=C1[C@H]2CCCC[C@H]2C(=O)N1CCCCN1CCN(c2nsc3ccccc23)CC1`, for which the activity change, negative = inhibition is 13.7%.

As to `C[n+]1c2cc(N)ccc2cc2ccc(N)cc21` (tested in a mixture with another compound), the activity change, negative = inhibition came to 6.61%.

On to `O=C(O)Cn1cnnn1`, for which the activity change, negative = inhibition was found to be 9.22%.

With `CC1=C(C)C(=O)C(C(CCCCCC(=O)O)c2ccccc2)=C(C)C1=O` (stereo not given), the activity change, negative = inhibition was -19.1%.

`NCCCCCC(=O)O`: the activity change, negative = inhibition was 54%.

Turning to `CN1CCN(c2ncc3nc(-c4cn(C)c5ccccc45)c(=O)n(-c4ccccc4)c3n2)CC1`, the Potency is active: 6.31 µM.

Regarding `Cc1ccc(C(=O)Nc2cc3c(cc2SCc2ccco2)n(C)c(=O)n3C)cc1`, the Potency was active: 7.94 µM.
